Data as given in patent US20250171450A1, “NOVEL COELENTERAZINE DERIVATIVES” (National Institute of Advanced Industrial Science and …, priority 2022, published 2025).

Tested on: ALuc16, ALuc47, RLuc8.6SG, NanoLuc
Experiment: Wavelength shift of bioluminescence spectra compared to natural coelenterazine
Assay type: biochemical
Conditions: compared to natural coelenterazine and the like

Row | SMILES | wavelength shift to the longer wavelength side
1 | O=c1c(Cc2ccc(O)cc2)nc2c(Sc3ccc(F)cc3)[nH]c(-c3ccc(O)cc3)cn1-2 [structural formula (2-2)] | approximately 50 nm
2 | O=c1c(Cc2ccc(O)cc2)nc2c(Sc3ccccc3)[nH]c(-c3ccc(O)cc3)cn1-2 [structural formula (2-1)] | approximately 50 nm
